These are yes or no findings as the source states them, for the method shown. Binding seen in cells or lysates may run through a third protein. Here binding means that the protein was enriched with, or labelled near, the bait; the list need not be complete. Sequences can lack the tags named with a protein. One block for each molecule: values may come before it.
Target: T1, FLAG-tagged RHOV (UniProt Q96L33)
T1 sequence: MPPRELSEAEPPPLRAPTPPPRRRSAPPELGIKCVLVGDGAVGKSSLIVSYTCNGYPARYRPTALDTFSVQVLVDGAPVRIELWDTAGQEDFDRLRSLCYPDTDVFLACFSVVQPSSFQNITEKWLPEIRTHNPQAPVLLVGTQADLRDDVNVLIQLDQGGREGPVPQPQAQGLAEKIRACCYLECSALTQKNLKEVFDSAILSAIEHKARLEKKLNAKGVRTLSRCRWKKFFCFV
Assay: affinity purification with mass spectrometry

Protein sequences, listed by entry. Tags and fused reporters are not part of them.
UniProt O96013: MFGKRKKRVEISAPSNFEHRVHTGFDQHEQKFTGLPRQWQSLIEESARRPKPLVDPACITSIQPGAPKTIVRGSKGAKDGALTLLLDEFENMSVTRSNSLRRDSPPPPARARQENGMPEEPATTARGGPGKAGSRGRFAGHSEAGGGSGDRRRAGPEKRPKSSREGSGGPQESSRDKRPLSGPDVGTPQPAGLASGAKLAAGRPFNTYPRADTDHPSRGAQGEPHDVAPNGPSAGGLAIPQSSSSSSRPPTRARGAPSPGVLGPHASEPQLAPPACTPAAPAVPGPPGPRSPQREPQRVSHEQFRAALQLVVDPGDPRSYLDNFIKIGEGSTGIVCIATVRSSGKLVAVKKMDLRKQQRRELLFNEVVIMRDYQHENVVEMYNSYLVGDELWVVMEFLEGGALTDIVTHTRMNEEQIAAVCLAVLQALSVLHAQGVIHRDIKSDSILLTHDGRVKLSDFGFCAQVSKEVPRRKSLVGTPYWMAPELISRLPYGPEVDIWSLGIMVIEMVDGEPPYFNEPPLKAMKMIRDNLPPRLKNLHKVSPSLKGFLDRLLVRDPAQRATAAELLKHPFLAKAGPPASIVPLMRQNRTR
UniProt Q00610: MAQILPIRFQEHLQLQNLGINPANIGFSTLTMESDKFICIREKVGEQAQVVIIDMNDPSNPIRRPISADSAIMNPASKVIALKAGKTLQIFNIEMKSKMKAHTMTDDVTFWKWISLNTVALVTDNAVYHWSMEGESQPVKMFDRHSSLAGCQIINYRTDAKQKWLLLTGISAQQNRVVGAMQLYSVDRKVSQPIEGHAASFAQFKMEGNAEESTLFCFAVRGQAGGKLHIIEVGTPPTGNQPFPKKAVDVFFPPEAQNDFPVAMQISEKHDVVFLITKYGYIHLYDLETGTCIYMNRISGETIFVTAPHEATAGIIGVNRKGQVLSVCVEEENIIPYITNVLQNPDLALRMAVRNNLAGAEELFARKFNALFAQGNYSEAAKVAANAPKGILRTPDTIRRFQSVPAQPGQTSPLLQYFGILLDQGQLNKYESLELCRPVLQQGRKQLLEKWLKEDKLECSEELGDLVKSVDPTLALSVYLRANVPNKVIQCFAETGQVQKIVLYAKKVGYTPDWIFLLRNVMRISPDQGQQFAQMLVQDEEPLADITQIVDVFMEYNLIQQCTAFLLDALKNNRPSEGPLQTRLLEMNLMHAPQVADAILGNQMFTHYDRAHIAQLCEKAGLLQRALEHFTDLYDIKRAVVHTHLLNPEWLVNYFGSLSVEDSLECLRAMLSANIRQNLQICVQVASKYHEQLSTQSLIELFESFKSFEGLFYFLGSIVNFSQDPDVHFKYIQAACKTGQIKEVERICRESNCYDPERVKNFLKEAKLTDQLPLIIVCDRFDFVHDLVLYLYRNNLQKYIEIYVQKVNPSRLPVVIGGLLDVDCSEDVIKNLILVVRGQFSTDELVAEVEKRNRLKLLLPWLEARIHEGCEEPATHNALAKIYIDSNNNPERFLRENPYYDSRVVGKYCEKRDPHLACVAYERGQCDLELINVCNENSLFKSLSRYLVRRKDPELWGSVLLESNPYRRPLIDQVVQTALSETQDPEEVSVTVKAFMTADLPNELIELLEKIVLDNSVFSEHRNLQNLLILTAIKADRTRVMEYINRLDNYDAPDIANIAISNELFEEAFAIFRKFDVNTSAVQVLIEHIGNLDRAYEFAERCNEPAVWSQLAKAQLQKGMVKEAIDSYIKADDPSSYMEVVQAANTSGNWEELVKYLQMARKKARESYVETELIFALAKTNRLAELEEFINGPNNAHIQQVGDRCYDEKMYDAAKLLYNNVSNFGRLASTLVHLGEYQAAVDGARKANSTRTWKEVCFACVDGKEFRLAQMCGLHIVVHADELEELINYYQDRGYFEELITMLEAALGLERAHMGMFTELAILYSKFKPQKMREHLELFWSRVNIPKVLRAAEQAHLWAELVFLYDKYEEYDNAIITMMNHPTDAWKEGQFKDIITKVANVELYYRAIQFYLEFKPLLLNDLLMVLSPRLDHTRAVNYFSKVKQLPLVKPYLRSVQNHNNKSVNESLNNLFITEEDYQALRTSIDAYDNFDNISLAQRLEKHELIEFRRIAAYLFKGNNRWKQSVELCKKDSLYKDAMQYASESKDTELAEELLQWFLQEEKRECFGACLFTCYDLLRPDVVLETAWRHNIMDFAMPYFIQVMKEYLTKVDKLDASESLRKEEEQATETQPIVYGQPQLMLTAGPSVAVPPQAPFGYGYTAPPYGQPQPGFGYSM
UniProt Q9H792: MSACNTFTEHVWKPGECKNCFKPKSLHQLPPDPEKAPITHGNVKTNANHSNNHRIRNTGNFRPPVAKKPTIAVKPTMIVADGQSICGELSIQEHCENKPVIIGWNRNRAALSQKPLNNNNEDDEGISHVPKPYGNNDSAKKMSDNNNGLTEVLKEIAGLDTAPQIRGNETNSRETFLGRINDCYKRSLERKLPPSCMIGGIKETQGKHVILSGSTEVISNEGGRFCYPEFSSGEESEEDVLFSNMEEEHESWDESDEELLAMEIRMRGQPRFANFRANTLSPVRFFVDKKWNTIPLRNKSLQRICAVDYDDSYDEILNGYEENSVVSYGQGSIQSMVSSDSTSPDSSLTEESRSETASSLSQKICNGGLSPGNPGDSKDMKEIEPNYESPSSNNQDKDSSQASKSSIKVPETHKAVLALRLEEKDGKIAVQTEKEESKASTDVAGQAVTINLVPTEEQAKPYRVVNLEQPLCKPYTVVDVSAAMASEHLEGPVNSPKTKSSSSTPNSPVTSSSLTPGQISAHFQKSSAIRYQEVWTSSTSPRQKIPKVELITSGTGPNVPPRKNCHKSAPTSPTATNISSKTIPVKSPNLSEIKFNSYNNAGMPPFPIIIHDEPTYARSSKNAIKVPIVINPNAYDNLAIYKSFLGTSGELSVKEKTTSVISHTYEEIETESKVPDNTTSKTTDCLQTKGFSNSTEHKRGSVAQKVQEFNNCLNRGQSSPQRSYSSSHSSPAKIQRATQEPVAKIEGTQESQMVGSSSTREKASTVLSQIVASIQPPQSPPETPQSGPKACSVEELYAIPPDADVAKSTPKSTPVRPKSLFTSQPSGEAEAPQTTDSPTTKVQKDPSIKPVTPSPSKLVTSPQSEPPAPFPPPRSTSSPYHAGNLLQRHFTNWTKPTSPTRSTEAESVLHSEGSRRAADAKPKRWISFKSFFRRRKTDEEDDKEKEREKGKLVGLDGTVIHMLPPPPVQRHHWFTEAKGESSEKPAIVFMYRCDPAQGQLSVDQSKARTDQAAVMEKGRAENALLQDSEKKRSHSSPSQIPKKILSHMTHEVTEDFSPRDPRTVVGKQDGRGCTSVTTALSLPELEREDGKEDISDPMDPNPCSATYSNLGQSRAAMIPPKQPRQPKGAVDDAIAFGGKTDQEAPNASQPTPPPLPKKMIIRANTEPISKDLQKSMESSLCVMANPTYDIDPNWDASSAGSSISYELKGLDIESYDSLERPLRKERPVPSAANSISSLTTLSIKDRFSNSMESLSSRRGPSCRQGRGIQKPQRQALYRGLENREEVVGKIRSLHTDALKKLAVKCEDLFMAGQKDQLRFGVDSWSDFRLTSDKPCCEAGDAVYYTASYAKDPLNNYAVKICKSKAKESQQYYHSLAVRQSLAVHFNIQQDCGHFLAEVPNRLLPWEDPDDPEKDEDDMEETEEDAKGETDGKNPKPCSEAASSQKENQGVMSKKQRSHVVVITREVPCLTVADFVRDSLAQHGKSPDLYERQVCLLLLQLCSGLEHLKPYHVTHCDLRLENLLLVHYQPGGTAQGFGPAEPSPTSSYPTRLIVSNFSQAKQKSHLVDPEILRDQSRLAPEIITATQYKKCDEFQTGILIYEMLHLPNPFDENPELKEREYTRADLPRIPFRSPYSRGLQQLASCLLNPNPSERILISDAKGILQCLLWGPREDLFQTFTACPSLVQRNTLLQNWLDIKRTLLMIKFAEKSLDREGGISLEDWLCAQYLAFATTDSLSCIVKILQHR
UniProt O00401: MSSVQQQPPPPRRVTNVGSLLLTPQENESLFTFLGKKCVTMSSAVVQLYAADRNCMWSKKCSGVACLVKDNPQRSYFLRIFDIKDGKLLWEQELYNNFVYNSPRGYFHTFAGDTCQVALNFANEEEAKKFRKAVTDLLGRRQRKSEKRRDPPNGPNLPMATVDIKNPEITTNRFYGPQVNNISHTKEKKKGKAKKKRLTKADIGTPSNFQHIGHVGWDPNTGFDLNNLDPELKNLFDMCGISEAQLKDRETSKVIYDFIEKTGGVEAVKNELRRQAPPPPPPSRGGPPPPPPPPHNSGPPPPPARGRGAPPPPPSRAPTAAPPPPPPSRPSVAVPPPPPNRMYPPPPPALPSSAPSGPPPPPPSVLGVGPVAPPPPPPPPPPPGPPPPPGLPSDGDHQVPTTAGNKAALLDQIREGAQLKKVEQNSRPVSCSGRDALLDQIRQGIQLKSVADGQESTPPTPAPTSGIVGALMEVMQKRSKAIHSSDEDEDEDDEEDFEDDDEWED
UniProt Q13177: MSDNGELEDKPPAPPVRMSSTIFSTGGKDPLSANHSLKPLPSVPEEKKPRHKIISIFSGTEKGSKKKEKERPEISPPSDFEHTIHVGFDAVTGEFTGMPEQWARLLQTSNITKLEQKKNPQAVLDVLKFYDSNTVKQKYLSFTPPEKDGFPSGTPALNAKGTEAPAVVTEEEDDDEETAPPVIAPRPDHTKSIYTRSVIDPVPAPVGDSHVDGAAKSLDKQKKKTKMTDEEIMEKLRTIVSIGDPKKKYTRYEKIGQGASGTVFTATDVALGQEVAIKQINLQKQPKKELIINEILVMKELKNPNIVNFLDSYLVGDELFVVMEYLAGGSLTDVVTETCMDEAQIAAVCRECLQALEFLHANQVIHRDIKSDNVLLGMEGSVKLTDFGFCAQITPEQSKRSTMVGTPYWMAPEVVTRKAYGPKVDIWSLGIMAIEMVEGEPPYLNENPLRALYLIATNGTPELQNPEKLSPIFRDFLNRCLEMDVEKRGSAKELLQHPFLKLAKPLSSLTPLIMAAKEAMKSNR
UniProt Q13153: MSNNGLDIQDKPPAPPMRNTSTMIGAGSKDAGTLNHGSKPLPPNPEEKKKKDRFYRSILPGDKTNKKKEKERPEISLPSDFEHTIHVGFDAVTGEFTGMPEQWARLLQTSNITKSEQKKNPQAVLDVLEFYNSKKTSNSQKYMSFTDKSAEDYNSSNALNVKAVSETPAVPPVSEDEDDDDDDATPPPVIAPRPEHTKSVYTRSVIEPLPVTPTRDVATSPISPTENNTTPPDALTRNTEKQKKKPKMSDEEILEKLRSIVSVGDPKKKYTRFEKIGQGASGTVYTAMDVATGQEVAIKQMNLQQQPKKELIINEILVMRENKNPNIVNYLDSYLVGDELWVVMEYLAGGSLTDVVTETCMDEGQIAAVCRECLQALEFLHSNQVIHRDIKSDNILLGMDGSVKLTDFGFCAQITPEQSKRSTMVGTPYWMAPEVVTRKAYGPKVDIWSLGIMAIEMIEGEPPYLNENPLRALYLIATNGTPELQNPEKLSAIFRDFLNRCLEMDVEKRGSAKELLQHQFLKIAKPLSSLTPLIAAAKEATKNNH
UniProt O43639: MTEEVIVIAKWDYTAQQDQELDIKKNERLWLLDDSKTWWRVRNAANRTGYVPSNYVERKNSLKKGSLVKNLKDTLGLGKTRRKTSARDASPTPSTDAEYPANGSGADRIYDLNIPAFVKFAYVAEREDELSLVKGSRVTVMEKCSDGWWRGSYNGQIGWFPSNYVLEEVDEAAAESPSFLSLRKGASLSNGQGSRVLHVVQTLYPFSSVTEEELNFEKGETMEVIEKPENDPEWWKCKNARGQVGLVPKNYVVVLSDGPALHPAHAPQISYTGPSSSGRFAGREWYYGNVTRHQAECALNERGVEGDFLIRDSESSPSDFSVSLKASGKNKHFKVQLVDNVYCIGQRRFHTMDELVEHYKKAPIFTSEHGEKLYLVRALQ

binding: binds
Molecule: PAK4 (from UniProt O96013 1-591)

binding: binds
Molecule: CLH1 (from UniProt Q00610 1-1675)

binding: binds
Molecule: Pseudopodium Enriched Atypical Kinase 1 (PEAK1) (from UniProt Q9H792 1-1746)

binding: binds
Molecule: WASL (from UniProt O00401 1-505)

binding: binds
Molecule: PAK2 (from UniProt Q13177 1-524)

The next lines start with the molecule.

Molecule: IQGAP1 (from UniProt P46940 1-1657)
binding: binds

Molecule: DLG5 (from UniProt Q8TDM6 1-1919)
binding: binds

Molecule: PAK1 (from UniProt Q13153 1-545)
binding: binds

Molecule: NCK2 (from UniProt O43639 1-380)
binding: binds

B1: GIT2 (protein, UniProt Q14161 1-759)
chain: MSKRLRSSEVCADCSGPDPSWASVNRGTFLCDECCSVHRSLGRHISQVRHLKHTPWPPTLLQMVETLYNNGANSIWEHSLLDPASIMSGRRKANPQDKVHPNKAEFIRAKYQMLAFVHRLPCRDDDSVTAKDLSKQLHSSVRTGNLETCLRLLSLGAQANFFHPEKGNTPLHVASKAGQILQAELLAVYGADPGTQDSSGKTPVDYARQGGHHELAERLVEIQYELTDRLAFYLCGRKPDHKNGQHFIIPQMADSSLDLSELAKAAKKKLQSLSNHLFEELAMDVYDEVDRRETDAVWLATQNHSALVTETTVVPFLPVNPEYSSTRNQGRQKLARFNAHEFATLVIDILSDAKRRQQGSSLSGSKDNVELILKTINNQHSVESQDNDQPDYDSVASDEDTDLETTASKTNRQKSLDSDLSDGPVTVQEFMEVKNALVASEAKIQQLMKVNNNLSDELRIMQKKLQTLQSENSNLRKQATTNVYQVQTGSEYTDTSNHSSLKRRPSARGSRPMSMYETGSGQKPYLPMGEASRPEESRMRLQPFPAHIGRSALVTSSSSLPSFPSTLSWSRDESARRASRLEKQNSTPESDYDNTPNDMEPDGMGSSRKGRQRSMVWPGDGLVPDTAEPHVAPSPTLPSTEDVIRKTEQITKNIQELLRAAQENKHDSYIPCSERIHVAVTEMAALFPKKPKSDMVRTSLRLLTSSAYRLQSECKKTLPGDPGSPTDVQLVTQQVIQCAYDIAKAAKQLVTITTKENNN
binding: binds

Source: article doi:10.1101/2025.04.18.649622
